# Measurements as given in US20260139023A1.
# Amino acid sequences for entries named in this document (tags omitted). A change or cut given only in a name is not applied to a line headed by its entry.
# UniProt P06756: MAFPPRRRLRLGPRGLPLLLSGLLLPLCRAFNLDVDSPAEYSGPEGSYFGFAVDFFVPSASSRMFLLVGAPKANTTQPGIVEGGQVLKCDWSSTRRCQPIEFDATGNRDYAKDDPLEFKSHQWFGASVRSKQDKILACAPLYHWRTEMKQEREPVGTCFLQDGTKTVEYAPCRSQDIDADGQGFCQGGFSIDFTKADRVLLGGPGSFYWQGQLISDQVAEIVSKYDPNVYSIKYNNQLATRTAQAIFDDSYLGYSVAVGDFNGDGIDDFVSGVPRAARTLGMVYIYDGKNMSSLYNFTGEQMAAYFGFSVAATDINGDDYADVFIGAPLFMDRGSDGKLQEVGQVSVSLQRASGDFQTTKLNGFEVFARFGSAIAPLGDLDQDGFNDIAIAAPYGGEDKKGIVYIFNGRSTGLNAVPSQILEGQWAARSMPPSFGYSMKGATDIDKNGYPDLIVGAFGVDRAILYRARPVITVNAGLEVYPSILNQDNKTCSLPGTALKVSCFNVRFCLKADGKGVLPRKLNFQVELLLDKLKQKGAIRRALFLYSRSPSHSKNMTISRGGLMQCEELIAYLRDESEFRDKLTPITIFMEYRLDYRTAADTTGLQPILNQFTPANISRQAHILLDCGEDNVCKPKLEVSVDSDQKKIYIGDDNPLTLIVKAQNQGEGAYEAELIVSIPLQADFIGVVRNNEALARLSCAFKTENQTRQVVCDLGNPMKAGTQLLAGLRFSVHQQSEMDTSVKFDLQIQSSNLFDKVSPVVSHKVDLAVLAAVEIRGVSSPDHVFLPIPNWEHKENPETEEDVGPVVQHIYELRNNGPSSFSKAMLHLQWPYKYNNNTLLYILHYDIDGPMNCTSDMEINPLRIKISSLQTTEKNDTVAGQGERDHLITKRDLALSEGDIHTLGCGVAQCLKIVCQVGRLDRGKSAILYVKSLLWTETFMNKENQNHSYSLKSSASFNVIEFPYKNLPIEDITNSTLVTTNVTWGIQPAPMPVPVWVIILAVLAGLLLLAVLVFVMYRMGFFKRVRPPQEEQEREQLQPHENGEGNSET
# UniProt P18084: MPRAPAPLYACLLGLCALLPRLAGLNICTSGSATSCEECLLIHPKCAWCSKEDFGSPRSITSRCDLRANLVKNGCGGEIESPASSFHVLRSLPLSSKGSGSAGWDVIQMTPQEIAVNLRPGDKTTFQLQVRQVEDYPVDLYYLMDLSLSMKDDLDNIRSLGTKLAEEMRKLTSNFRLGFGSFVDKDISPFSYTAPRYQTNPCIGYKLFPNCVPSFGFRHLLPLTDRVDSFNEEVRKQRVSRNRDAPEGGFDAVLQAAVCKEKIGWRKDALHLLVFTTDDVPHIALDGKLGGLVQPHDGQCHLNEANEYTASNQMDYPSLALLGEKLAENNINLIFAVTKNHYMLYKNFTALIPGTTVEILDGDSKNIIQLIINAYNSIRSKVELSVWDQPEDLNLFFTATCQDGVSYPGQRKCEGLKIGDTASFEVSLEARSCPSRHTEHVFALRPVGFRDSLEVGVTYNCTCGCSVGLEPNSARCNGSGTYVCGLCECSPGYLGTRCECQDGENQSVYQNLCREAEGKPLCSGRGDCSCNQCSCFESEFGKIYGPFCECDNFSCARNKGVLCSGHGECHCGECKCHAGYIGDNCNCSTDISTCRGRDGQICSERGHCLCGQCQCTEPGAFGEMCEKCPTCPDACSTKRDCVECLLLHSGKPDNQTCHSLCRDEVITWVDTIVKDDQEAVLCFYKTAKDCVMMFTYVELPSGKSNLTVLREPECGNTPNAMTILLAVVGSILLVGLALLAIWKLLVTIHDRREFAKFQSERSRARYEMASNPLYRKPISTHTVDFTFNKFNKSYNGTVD
# Results are given in words; binding and its absence hold for the method and conditions named. For part of these data: In cells and extracts the contact can be indirect. Some results given as binding are weak or reduced against the parent protein; the word gives no strength.
# Key:
# [1] = biological target: endogenous cell surface integrin αVβ5 on SK-Mel2 cells (human) (UniProt P06756+P18084); assay: co-immunoprecipitation from SK-Mel2 cells; cell surface Hsp90α captured by anti-Hsp90α on live cells at 4° C (FIG. 9B)
# [2] = biological target: T1, clasped and tagged αVβ5 (recombinant human αVβ5 ectodomain with C-terminal coiled-coil clasp and affinity tags) (human) (UniProt P06756+P18084); assay: TALON pull-down, bead-bound clasped αVβ5 and untagged Hsp90α, Coomassie staining (FIG. 8C)
# [3] = biological target: T1, clasped and tagged αVβ5 (recombinant human αVβ5 ectodomain with C-terminal coiled-coil clasp and affinity tags) (human); assay: TALON pull-down, 1 µM bead-bound clasped and tagged αVβ5, 2 µM Hsp90α as Apo, ATP, AMP-PNP or ADP form; Coomassie and western blot (FIG. 4F)
binding [1],binding [2],binding [3],Substance
binds,–,–,endogenous cell surface eHsp90α on SK-Mel2 cells (from UniProt P07900 2-732)
–,binds,binds,"recombinant human Hsp90α (purified from E. coli, untagged) (from UniProt P07900 2-732)"
